The nature of this series: general procedure: solution-phase peptide synthesis; DCC/HOBt; HBTU/HOBt/DIPEA; TBTU/HOBt/DIPEA. The conditions noted are these: TFA salts for intermediates, Azaline B as free base; for crude yield: whole synthesis.

As for Ac-D-2-Nal-D-p-Cal-D-3-Pal-Ser-OH, the step yield (late stage modification step) is 75.7%. With Ac-D-NAL-D-pCal-D-3-PAL-Ser-OBn, the step yield (coupling step) is on record as 92.6%. As for “Ac-p-D-2NAL-p-D-Cal-D-3PAL-Ser-Aph(Atz)-D-Aph(Atz)-Leu-Lys(ε-iPr)-Pro-D-Ala-NH2”, for the setting “late stage modification step”, the step yield was determined as 86.2%. In the case of “Aph(Atz)-D-Aph(Atz)-Leu-Lys(Z,iPr)-Pro-D-AlaNH2 x3TFA”, the step yield (late stage modification step) is recorded as 98%. For “Boc-Aph(Atz)-D-Aph(Atz)-Leu-Lys(ε-Z, ε-iPr)-Pro-D-Ala-NH2”, the step yield (coupling step) amounted to 89%.

Take Boc-Leu-Lys(iPr,Z)-Pro-D-Ala-NH2: the crude yield turned out to be 87%. As to TFA-Leu-Lys(iPr,Z)-Pro-D-Ala-NH2, the crude yield was found to be 86.5%.

(Values after patent publication US5977302 (dated 1999).)
